In publication PMC10163288:
The other results are listed elsewhere or left out.

B1: il2ra_site2_2erj_sap_26_mot_HHH_b1_01129_af2_000000281_0001_18_33_H_._HHH_b1_00424_0001_0000100001_0000001_0_0001 (protein)
chain: SSSSSNDAERVNRLIREVIELFREGNPEEAERLLRELEEFLRELGDEELLEAVELLLKMLSSSSS
B2: il2ra_site1_1z92_sap_14_mot_HHH_b1_03619_000000222_0001_22_39_H_._HHH_b2_04685_af2_0001_0000300015_0000001_0_0001 (protein)
chain: SSSSSVHESAELALRVAKRAAERGDPEKAQEWAEFALRQLEMLGDPLAEEVRELEEEIERLSSSS
B3: il2ra_site1_2b5i_normal_mot_HHH_b1_06258_af2_000000112_0001_42_56_H_._HHH_b2_04697_af2_0001_0000300042_0000001_0_af2pred_0001_af2pred (protein)
chain: SSSSDEEFERIYELYLEASRLFRQGNHEEARELLEEAIQLAKEGNDEKLLKQLEHMLKALGSSSS
B4: il2ra_site2_2erj_sap_14_mot_HHH_b2_01204_af2_000000056_0001_19_34_H_._HHH_b2_03878_0001_0000200011_0000001_0_0001 (protein)
chain: SSSSDWLHELYELASEITRLLAEGDPEEARRLLEELEELAEENDSPNAEEIVERLEKKIESSSSS
B5: il2ra_site2_2erj_normal_mot_HHH_b1_02713_af2_000000038_0001_1_19_H_._HHH_b2_05421_0001_0000700029_0000001_1 (protein)
chain: SSSSSEEKEAIRHALLRAELLIEEGNEEEARQVLESALRYAKQLGDEEVLEEIEKLLKELSSSSS
B6: il2ra_site2_3nfp_normal_mot_HHH_b1_00660_af2_000000090_0001_40_57_H_._HHH_b1_05518_af2_0001_0000100003_0000001_0_1_af2pred_0001_af2pred (protein)
chain: SSSSDEEEAEKILEQAERVLENGNPEEARELLEEAAHLAVQNGDFELLTKILRLLEEVERRSSSS
B7: il2ra_site1_2b5i_normal_mot_f5ff40796168375b462bec8614a1db4a_0001_1_000000138_0001_53_65_H_._ems_3hM_2054_af2_0001_0000100009_0000001_0_af2pred_dldesign_0_af2pr … (protein)
chain: SDEEVEDIRERATAATRAALAANDPLLARKLVLLVRRWARKHNNPELEEVVRELEKMIADYLESS
B8: il2ra_site1_1z92_normal_mot_HHH_b1_05862_af2_000000270_0001_22_38_H_._HHH_b1_00437_0001_0000100007_0000001_0 (protein)
chain: SSSSDRAEKWAFELAELLIRALERAGDPKAREQVEFLIEDLELLGNPELAEELRELLEEVDSSSS
B9: il2ra_site2_3nfp_normal_mot_HHH_b2_05281_000000198_0001_39_56_H_._HHH_b1_08465_0001_0000600035_0000001_0 (protein)
chain: SSSSDLEERVRELLERAEELLEKGNPEEARKFIAEAVELVYENRNAELFFLVAEVAFKLAQSSSS
B10: il2ra_site1_2b5i_normal_mot_HHH_b1_03123_000000199_0001_1_18_H_._HHH_b2_06006_0001_0000500022_0000001_0_af2pred_dldesign_0_af2pred (protein)
chain: SSSSSDAYDRIYDLYKEALRLKREGKKEEAKKVLEEAIALATAAGDTKAVAELQRLLELLSSSSS
B11: il2ra_site2_2erj_normal_mot_6d5f7cbc25fed124e3eb7f952334b9cf_0001_af2_000000048_0001_1_13_H_._HHH_b1_00754_af2_0001_0000300008_0000001_0 (protein)
chain: SSSSSDAVEFARKVFEEAHELFKQGNREEVERLLEEAIEELERLGDPAAALALEAALKFISSSSS
B12: il2ra_site2_3nfp_sap_38_mot_HHH_b2_07052_af2_000000028_0001_19_35_H_._HHH_b2_02165_0001_0000100012_0000001_0_0001 (protein)
chain: SSSSDAEEYVRAALALLRRALKEGDEEAFERLAEIVRLAIESNNDEELERELEKIKEEFENSSSS
B13: il2ra_site1_3nfp_normal_mot_HHH_b1_06312_000000199_0001_1_18_H_._HHH_b2_07370_af2_0001_0000200023_0000001_1_af2pred_0001_af2pred (protein)
chain: SSSDRTEEVLERFRRVFELARNGNEEEAEELLEELIRLLEEQGNEAAVKFARAALEVLRSQSSSS
B14: il2ra_site1_2b5i_normal_mot_ems_3hM_3687_af2_000000248_0001_45_64_H_._HHH_b2_02169_af2_0001_0000200006_0000001_0_af2pred_dldesign_0_af2pred (protein)
chain: SSSSSDVEKKVQELIERAEKEKDLRKALEILQEAYDLADEAGREELADYVEELAKKRLLGSSSSS
B15: il2ra_site2_2erj_sap_10_mot_HHH_b1_05650_000000005_0001_42_56_H_._HHH_b1_02138_0001_0000100006_0000001_0_0001_af2pred_0001_1_af2pred_swapped (protein)
chain: SSSSSVEERLEELKEKAKELEERGNPEEARKVLREALLIAAQNNNEELAEELSHLLSKLHSSSSS
B16: il2ra_site1_3nfp_normal_mot_HHH_b1_05868_000000088_0001_43_57_H_._HHH_b1_05429_0001_0000100013_0000001_0_af2pred_0001_af2pred_1_swapped (protein)
chain: SSSSDRRSRELIEAARMLAEELNDPETLERLEQLREEYEEEGDERLLREVFKLLRELLERASSSS
B17: il2ra_site1_2b5i_sap_7_mot_HHH_b1_05947_000000126_0001_42_56_H_._HHH_b1_05810_af2_0001_0000100008_0000001_1_0001_af2pred_0001_af2pred (protein)
chain: SSSSSEEEQRAFELYHEASRAFSNGDKERARELLEEAIELAEEAGDPKIKRELEQFLEMLSSSSS
B18: il2ra_site1_3nfp_normal_mot_HHH_b2_00286_000000273_0001_43_57_H_._HHH_b2_04458_af2_0001_0000200012_0000001_0 (protein)
chain: SSSSDEHELSRLLLELFKAIRNNDEEKVEELLEEVRRLIEELGDRVARLLLEQLEEQLRLSSSSS
B19: il2ra_site2_2erj_normal_mot_af86707857d369f3e1d85dcabc5f9321_0001_000000201_0001_14_29_H_._HHH_b1_07617_0001_0001000035_0000001_1_af2pred_0001_af2pred (protein)
chain: SSSSDEEEQIERLLREARELLEEGDPERAREVVWEAAQLAAESDNEELLKEILELLREIHGSSSS

Molecular target: il2ra, P01589
Assay: yeast display titration

Apparent Kd, inactive:
B1 no binding seen
B2 no binding seen
B3 no binding seen
B4 no binding seen
B5 no binding seen
B6 no binding seen
B7 no binding seen
B8 no binding seen
B9 no binding seen
B10 no binding seen
B11 no binding seen
B12 no binding seen
B13 no binding seen
B14 no binding seen
B15 no binding seen
B16 > 912 nM
B17 no binding seen
B18 no binding seen
B19 no binding seen

Looked up one by one from the list above:
Apparent Kd, inactive:
B17 no binding seen
B3 no binding seen
